Results from publication PMC12509757.
Results are given in words; binding and its absence hold for the method and conditions named. Sequences can lack the tags named with a protein.

Protein sequences, listed by entry. Tags and fused reporters are not part of them. Residues count along the entry.
UniProt P02769, residues 25-607: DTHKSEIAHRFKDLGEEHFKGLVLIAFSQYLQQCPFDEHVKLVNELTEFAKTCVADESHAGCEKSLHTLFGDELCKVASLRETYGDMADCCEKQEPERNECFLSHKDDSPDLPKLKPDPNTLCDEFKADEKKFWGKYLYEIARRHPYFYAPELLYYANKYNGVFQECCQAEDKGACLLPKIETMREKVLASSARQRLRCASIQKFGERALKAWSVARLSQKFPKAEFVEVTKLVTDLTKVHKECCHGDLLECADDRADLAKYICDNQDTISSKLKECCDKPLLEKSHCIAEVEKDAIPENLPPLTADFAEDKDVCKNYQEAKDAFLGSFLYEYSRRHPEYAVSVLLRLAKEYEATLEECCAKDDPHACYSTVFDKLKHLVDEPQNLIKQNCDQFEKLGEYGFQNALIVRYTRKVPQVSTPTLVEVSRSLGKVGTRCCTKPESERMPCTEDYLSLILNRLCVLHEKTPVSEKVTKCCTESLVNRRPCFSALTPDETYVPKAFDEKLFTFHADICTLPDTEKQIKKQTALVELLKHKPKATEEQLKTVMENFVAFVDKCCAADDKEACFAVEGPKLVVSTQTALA

Target: BSA (bovine) (UniProt P02769)
Test: condition: 1 μM or 2 μM (methods) recombinant protein; co-sedimentation; in vitro; recombinant His GST protein (1 μM in the legends, 2 μM in the methods) with increasing concentrations of microtubules from pig brain tubulin (or BSA instead) in 1X BRB80, 1 mM DTT, 20 μM paclitaxel, 5 min at room temperature; 100,000g, 15 min, 30 °C through 40% glycerol; immunoblot of supernatant and pellet; apparent Kd, one site-specific binding fit; both purified

binding: no binding
B1: His GST BAR-PH (aa 1-388) of ARHGAP10, WT (domain or fragment, UniProt A1A4S6 1-388)
chain: MGLQPLEFSDCYLDSPWFRERIRAHEAELERTNKFIKELIKDGKNLIAATKSLSVAQRKFAHSLRDFKFEFIGDAVTDDERCIDASLREFSNFLKNLEEQREIMALSVTETLIKPLEKFRKEQLGAVKEEKKKFDKETEKNYSLIDKHLNLSAKKKDSHLQEADIQVEQNRQHFYELSLEYVCKLQEIQERKKFEFVEPMLSFFQGMFTFYHQGHELAKDFNHYKMELQINIQNTRNRFEGTRSEVEELMNKIRQNPKDHKRASQFTAEGYLYVQEKRPAPFGSSWVKHYCMYRKAAKKFNMIPFEHRSGGKLGDGEVFFLKECTKRHTDSIDRRFCFDIEAADRPGVSLTMQAFSEEERKQWLEALGGKEALSHSFNTAIIPRPEGN
